# Results are given in words; binding and its absence hold for the method and conditions named.
# Sequences of proteins named here, by UniProt entry; tags and fusion partners are left off. A change or cut given only in a name is not applied to a line headed by its entry. A line that says so, or that is headed by a name, gives the form on record, which may keep a tag or linker. Residues count along the entry.
# Human angiogenin, wild type (P03950, residues 25-147): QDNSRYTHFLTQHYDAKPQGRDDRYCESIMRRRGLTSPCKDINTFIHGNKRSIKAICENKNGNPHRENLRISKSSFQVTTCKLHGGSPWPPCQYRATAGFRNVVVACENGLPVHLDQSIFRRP
# H13A-ANG (human angiogenin variant H13A) (P03950, form named): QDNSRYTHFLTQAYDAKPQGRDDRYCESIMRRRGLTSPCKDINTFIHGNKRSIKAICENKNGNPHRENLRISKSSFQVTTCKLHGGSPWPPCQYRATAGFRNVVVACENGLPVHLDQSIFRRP
# R121C-ANG (human angiogenin variant R121C) (P03950, form named): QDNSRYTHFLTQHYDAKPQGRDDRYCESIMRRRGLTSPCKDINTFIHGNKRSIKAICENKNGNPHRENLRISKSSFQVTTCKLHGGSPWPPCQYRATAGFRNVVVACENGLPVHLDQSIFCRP
# Key:
# [1] = target: H13A-ANG (human angiogenin variant H13A) (human) (UniProt P03950); test: SEC; protein lyophilized from 40% HAc, powder solubilized in ddH2O without NaPi; Superdex 75 Increase 10/300 in 0.40 M NaPi, pH 6.7; both purified
# [2] = target: H13A-ANG (human angiogenin variant H13A) (human) (UniProt P03950); test: SEC; powder lyophilized from ddH2O dissolved directly in 0.40 M NaPi, pH 6.7, without HAc lyophilization; Superdex 75 Increase 10/300 in 0.40 M NaPi, pH 6.7; both purified
# [3] = target: H13A-ANG (human angiogenin variant H13A) (human) (UniProt P03950); test: SEC; protein lyophilized from 40% HAc (about 25 mg/mL), powder solubilized in 0.40 M NaPi, pH 6.7; Superdex 75 Increase 10/300 in 0.40 M NaPi, pH 6.7; dimer extent = peak area vs. total area eluted; both purified
# [4] = target: Human angiogenin, wild type (human) (UniProt P03950); test: condition: only without previous HAc lyophilization; SEC; powder lyophilized from ddH2O dissolved directly in 0.40 M NaPi, pH 6.7, without HAc lyophilization; Superdex 75 Increase 10/300 in 0.40 M NaPi, pH 6.7; both purified
# [5] = target: Human angiogenin, wild type (human) (UniProt P03950); test: condition: only HAc-lyophilized powder dissolved in ddH2O lacking NaPi buffer; SEC; protein lyophilized from 40% HAc, powder solubilized in ddH2O without NaPi; Superdex 75 Increase 10/300 in 0.40 M NaPi, pH 6.7; both purified
# [6] = target: R121C-ANG (human angiogenin variant R121C) (human) (UniProt P03950); test: condition: only without previous HAc lyophilization; SEC; powder lyophilized from ddH2O dissolved directly in 0.40 M NaPi, pH 6.7, without HAc lyophilization; Superdex 75 Increase 10/300 in 0.40 M NaPi, pH 6.7; both purified
# [7] = target: R121C-ANG (human angiogenin variant R121C) (human) (UniProt P03950); test: condition: only HAc-lyophilized powder dissolved in ddH2O lacking NaPi buffer; SEC; protein lyophilized from 40% HAc, powder solubilized in ddH2O without NaPi; Superdex 75 Increase 10/300 in 0.40 M NaPi, pH 6.7; both purified
substance,measurement,setting,value
H13A-ANG (human angiogenin variant H13A) (from UniProt P03950 25-147) (enzyme),binding,[1],no binding
same,binding,[2],no binding
same,binding,[3],no binding
"Human angiogenin, wild type (from UniProt P03950 25-147) (enzyme)",binding,[4],no binding
same,binding,[5],no binding
R121C-ANG (human angiogenin variant R121C) (from UniProt P03950 25-147) (enzyme),binding,[6],no binding
same,binding,[7],no binding
